We go through 21 molecules from PMC6280245.

By UniProt entry, the sequences of proteins in these tests, tags left out.
UniProt P52480: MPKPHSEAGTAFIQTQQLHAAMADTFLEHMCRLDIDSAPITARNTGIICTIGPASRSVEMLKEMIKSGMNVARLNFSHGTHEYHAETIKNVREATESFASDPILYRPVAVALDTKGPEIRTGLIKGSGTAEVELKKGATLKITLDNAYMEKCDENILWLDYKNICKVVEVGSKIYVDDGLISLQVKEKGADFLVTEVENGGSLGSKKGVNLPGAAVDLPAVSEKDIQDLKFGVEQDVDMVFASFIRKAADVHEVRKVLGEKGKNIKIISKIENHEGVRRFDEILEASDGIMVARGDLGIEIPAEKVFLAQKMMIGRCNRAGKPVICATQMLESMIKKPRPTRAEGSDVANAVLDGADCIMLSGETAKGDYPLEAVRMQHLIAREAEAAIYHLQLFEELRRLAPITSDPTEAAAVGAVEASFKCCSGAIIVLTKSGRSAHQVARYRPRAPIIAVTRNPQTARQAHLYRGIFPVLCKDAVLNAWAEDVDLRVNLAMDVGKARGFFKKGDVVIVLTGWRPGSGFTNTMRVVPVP
UniProt P56399: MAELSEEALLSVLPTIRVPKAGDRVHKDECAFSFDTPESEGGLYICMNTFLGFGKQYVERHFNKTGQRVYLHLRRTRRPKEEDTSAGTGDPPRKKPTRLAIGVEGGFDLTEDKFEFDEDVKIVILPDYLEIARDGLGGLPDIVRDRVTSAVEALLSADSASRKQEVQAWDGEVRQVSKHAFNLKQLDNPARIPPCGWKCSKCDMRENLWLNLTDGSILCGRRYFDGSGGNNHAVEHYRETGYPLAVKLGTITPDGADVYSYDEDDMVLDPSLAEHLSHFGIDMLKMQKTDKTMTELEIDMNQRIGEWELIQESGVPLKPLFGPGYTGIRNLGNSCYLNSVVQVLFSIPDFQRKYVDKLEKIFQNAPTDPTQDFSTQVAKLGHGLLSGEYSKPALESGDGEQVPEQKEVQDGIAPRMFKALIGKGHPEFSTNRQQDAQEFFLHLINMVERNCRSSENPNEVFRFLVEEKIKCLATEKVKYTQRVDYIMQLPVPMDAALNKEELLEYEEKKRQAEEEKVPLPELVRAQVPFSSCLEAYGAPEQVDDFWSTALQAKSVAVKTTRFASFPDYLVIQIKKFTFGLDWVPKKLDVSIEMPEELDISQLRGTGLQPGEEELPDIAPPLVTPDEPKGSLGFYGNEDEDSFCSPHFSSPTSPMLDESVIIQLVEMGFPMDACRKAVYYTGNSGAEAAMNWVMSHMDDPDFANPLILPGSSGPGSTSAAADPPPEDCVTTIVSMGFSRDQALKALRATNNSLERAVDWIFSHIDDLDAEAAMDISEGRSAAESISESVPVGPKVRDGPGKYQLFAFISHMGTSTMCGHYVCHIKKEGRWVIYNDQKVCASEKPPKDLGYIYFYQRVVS
UniProt P63101: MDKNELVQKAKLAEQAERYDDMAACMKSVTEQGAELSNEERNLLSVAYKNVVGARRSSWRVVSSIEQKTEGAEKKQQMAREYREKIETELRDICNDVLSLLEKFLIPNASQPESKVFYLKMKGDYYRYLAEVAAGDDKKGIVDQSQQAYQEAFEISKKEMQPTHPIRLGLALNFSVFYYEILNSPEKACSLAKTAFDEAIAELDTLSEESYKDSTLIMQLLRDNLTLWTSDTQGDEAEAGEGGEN
UniProt Q9CWS0: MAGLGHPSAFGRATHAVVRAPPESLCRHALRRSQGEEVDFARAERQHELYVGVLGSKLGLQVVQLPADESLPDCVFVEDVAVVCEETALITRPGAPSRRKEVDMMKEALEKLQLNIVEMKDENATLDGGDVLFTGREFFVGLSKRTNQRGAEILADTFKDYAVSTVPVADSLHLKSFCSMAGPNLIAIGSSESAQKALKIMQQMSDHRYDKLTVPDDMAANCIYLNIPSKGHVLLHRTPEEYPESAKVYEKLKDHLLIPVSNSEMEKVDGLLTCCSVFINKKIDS
UniProt P17183: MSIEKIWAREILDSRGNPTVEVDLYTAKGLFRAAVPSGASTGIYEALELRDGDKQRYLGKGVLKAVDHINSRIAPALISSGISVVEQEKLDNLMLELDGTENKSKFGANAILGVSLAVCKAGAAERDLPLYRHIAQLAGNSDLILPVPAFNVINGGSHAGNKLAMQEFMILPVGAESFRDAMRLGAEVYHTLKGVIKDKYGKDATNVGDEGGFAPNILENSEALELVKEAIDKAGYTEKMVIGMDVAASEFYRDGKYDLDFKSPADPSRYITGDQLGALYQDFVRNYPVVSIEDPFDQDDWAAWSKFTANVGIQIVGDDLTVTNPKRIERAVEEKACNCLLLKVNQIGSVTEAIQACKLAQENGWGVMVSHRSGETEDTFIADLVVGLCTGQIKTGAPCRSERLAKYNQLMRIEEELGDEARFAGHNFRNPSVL
UniProt P62874: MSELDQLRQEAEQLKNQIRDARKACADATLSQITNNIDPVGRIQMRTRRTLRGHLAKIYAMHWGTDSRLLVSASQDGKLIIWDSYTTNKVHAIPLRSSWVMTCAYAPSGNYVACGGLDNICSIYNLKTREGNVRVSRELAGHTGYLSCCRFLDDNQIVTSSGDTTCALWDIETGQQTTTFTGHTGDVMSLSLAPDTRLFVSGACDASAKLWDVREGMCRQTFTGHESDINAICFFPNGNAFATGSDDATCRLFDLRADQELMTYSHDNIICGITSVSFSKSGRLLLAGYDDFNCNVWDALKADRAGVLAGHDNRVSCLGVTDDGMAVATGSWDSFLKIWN
UniProt Q8BGQ7: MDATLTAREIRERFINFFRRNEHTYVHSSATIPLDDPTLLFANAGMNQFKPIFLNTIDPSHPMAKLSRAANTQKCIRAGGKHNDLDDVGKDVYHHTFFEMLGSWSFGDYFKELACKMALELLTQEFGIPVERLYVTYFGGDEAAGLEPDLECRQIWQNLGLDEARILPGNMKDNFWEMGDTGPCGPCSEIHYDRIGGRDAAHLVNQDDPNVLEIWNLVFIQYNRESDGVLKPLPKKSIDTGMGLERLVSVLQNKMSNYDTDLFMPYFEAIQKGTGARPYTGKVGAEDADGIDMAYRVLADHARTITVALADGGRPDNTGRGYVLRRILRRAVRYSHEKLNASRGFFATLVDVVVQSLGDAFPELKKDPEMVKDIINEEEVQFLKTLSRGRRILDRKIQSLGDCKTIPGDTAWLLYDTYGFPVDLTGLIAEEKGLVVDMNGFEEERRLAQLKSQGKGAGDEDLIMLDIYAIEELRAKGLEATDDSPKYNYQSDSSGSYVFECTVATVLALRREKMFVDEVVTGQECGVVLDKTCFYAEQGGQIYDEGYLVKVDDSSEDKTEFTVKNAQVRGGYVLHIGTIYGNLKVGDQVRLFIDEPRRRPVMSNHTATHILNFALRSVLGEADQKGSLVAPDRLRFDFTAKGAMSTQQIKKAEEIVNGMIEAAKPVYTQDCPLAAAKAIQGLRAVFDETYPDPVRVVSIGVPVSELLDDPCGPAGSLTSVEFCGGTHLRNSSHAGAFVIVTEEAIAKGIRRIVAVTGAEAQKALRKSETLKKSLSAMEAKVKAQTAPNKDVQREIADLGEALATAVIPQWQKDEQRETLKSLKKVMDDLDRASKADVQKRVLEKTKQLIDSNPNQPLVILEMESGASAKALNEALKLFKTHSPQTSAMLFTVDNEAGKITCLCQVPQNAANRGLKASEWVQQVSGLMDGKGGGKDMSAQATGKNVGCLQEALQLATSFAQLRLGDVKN
UniProt P05201: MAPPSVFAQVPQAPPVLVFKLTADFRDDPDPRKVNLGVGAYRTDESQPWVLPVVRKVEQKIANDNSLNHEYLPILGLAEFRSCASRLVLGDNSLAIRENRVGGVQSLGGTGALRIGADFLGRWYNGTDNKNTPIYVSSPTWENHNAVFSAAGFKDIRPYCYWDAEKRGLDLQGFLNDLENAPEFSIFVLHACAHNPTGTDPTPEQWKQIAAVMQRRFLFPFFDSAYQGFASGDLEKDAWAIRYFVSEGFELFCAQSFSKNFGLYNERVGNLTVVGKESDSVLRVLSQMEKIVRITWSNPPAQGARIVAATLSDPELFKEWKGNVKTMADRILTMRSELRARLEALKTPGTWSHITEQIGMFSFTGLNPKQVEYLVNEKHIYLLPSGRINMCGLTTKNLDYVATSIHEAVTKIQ
UniProt P18760: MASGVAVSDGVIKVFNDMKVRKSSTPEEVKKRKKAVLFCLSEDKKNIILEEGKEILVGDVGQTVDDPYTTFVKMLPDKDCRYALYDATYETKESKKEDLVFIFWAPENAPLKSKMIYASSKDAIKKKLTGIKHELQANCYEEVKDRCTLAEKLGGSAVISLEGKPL
UniProt P50247: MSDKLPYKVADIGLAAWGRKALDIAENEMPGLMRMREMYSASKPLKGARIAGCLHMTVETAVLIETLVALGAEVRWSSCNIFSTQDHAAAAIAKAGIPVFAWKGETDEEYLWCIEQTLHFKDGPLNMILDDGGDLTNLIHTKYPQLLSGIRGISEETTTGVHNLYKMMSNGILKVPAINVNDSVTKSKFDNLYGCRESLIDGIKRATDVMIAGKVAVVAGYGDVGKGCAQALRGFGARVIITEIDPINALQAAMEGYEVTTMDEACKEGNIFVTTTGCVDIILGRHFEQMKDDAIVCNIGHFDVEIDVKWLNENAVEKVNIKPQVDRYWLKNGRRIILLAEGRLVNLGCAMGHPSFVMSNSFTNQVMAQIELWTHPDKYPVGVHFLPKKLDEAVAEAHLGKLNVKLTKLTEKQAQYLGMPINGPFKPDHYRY
UniProt O88447: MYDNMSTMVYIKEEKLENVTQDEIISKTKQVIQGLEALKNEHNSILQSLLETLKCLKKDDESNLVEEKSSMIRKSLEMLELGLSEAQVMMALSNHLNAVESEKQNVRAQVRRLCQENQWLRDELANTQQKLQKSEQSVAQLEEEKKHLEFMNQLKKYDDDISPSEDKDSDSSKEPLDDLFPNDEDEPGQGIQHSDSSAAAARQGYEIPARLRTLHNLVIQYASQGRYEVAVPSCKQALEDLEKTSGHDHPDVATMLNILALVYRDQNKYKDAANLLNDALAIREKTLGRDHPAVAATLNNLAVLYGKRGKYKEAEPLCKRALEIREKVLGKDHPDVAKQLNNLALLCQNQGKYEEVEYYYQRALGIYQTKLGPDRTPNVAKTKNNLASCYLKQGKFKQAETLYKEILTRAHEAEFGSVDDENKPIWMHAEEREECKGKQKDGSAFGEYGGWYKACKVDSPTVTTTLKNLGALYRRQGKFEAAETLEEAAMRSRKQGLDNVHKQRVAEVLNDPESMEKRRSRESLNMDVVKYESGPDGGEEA
UniProt P70288: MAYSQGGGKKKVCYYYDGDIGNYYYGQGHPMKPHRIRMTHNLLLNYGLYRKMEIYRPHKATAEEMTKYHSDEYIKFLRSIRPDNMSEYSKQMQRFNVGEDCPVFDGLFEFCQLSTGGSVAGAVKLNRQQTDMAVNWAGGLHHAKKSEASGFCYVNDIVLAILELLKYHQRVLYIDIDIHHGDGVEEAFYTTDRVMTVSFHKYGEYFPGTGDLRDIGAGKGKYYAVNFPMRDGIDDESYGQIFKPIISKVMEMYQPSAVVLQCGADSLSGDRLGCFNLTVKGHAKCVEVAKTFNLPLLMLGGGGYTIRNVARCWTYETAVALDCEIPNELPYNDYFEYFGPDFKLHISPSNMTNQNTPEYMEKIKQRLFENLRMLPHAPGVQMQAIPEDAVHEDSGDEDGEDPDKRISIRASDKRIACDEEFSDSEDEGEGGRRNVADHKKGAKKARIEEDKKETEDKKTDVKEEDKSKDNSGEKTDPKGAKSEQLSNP

To fix the notation:
T1: mouse Nucleoredoxin Cys208Ser (mouse) (UniProt P97346)
T1 sequence: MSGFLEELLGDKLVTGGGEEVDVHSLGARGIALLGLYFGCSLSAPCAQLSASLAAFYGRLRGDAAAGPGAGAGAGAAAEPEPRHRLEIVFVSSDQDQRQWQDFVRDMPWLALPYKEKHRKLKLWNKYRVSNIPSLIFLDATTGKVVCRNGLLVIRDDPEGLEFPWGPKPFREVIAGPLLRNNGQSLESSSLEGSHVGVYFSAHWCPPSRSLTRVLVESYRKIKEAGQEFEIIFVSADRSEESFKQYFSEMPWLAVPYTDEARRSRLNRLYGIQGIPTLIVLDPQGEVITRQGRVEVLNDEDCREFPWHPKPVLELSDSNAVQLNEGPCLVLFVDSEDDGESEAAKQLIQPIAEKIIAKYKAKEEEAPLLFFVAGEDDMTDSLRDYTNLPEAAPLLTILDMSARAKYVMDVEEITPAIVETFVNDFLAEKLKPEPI

B1: Branched-chain amino acid aminotransferase, cytosolic (protein, UniProt P54687 1-386)
chain: MKDCSNGCSAECTGEGGSKEVVGTFKAKDLIVTPATILKEKPDPNNLVFGTVFTDHMLTVEWSSEFGWEKPHIKPLQNLSLHPGSSALHYAVELFEGLKAFRGVDNKIRLFQPNLNMDRMYRSAVRATLPVFDKEELLECIQQLVKLDQEWVPYSTSASLYIRPTFIGTEPSLGVKKPTKALLFVLLSPVGPYFSSGTFNPVSLWANPKYVRAWKGGTGDCKMGGNYGSSLFAQCEAVDNGCQQVLWLYGEDHQITEVGTMNLFLYWINEDGEEELATPPLDGIILPGVTRRCILDLAHQWGEFKVSERYLTMDDLTTALEGNRVREMFGSGTACVVCPVSDILYKGETIHIPTMENGPKLASRILSKLTDIQYGREESDWTIVLS
B2: T-Complex protein 1 subunit beta (protein, UniProt P78371 1-535)
chain: MASLSLAPVNIFKAGADEERAETARLTSFIGAIAIGDLVKSTLGPKGMDKILLSSGRDASLMVTNDGATILKNIGVDNPAAKVLVDMSRVQDDEVGDGTTSVTVLAAELLREAESLIAKKIHPQTIIAGWREATKAAREALLSSAVDHGSDEVKFRQDLMNIAGTTLSSKLLTHHKDHFTKLAVEAVLRLKGSGNLEAIHIIKKLGGSLADSYLDEGFLLDKKIGVNQPKRIENAKILIANTGMDTDKIKIFGSRVRVDSTAKVAEIEHAEKEKMKEKVERILKHGINCFINRQLIYNYPEQLFGAAGVMAIEHADFAGVERLALVTGGEIASTFDHPELVKLGSCKLIEEVMIGEDKLIHFSGVALGEACTIVLRGATQQILDEAERSLHDALCVLAQTVKDSRTVYGGGCSEMLMAHAVTQLANRTPGKEAVAMESYAKALRMLPTIIADNAGYDSADLVAQLRAAHSEGNTTAGLDMREGTIGDMAILGITESFQVKRQVLLSAAEAAEVILRVDNIIKAAPRKRVPDHHPC
B3: Branched-chain amino acid aminotransferase, cytosolic (mouse) (protein, UniProt P24288 1-386)
chain: MKDCSNGCSAPFAGERGSEEVAETFRAKDLIITPATVLKEKPDPDSLVFGATFTDHMLTVEWSSASGWEKPHIKPFGNLPIHPAASVLHYAVELFEGLKAFRGVDNKIRLFRPDLNMDRMCRSAVRTTLPMFDKEELLKCILQLLQIDQEWVPYSTSASLYIRPTFIGTEPSLGVKKPSKALLFVILSPVGPYFSSGSFTPVSLWANPKYIRAWKGGTGDCKMGGNYGASLLAQCEAVENGCQQVLWLYGKDNQITEVGTMNLFLYWINEDGEEELATPPLDGIILPGVTRQSILELAQQWGEFKVCERHLTMDDLATALEGNRVKEMFGSGTACVVCPVSDILYKGQMLHIPTMENGPKLASRILGKLTDIQYGRVESDWTIELP
B4: Alpha-aminoadipic semialdehyde dehydrogenase (mouse) (protein, UniProt Q9DBF1 27-539)
chain: AHMSTLLIHHPQYAWLQDLGLREDNEGVYNGSWGGRGEVITTYCPANNEPIARVRQASLKDYEETIGKAKKAWNIWADIPAPKRGEIVRKIGDAFREKIQLLGRLVSLEMGKILVEGIGEVQEYVDVCDYAAGLSRMIGGPTLPSERPGHALIEMWNPLGLVGIITAFNFPVAVFGWNNAIALITGNVCLWKGAPTTSLVSVAVTKIIAQVLEDNLLPGAICSLVCGGADIGTTMARDERVNLLSFTGSTQVGKEVALMVQERFGKSLLELGGNNAIIAFEDADLSLVVPSVLFAAVGTAGQRCTTVRRLFLHESIHNEVVDRLRSAYSQIRVGNPWDPNILYGPLHTKQAVSMFVRAVEEAKKQGGTVVYGGKVMDHPGNYVEPTIVTGLAHDAPIVHQETFAPILYVFKFQDEEEVFEWNNEVKQGLSSSIFTKDLGRIFRWLGPKGSDCGIVNVNIPTSGAEIGGAFGGEKHTGGGRESGSDAWKQYMRRSTCTINYSTSLPLAQGIKFQ
B5: Tyrosine-tRNA ligase, cytoplasmic (mouse) (protein, UniProt Q91WQ3 1-528)
chain: MGDAPSPEEKLHLITRNLQEVLGEEKLKEILKERELKVYWGTATTGKPHVAYFVPMSKIADFLKAGCEVTILFADLHAYLDNMKAPWELLELRTSYYENVIKAMLESIGVPLEKLKFIKGTDYQLSKEYTLDVYRLSSVVTQHDAKKAGAEVVKQVEHPLLSGLLYPGLQALDEEYLKVDAQFGGVDQRKIFTFAEKYLPALGYSKRVHLMNPMVPGLTGSKMSSSEEESKIDLLDRKEDVKKKLKKAFCEPGNVENNGVLSFIKHVLFPLKSEFVILRDEKWGGNKTYTVYLELEKDFAAEVVHPGDLKNSVEVALNKLLDPIREKFNTPALKKLASAAYPDPSKQKPPAKGPAKNSEPEEVIPSRLDIRVGKILSVEKHPDADSLYVEKIDVGEAEPRTVVSGLVQFVPKEELQDRLVVVLCNLKPQKMRGVDSQGMLLCASVEGVSRQVEPLDPPAGSAPGERVFVQGYEKGQPDEELKPKKKVFEKLQADFKISEECIAQWKQTNFMTKLGFVSCKSLKGGNIS
B6: T-Complex protein 1 subunit theta (mouse) (protein, UniProt P42932 1-548)
chain: MALHVPKAPGFAQMLKDGAKHFSGLEEAVYRNIQACKELAQTTRTAYGPNGMNKMVINRLEKLFVTNDAATILRELEVQHPAAKMIVMASHMQEQEVGDGTNFVLVFAGALLELAEELLRIGLSVSEVISGYEIACKKAHEILPELVCCSAKNLRDVDEVSSLLRTSIMSKQYGSETFLAKLIAQACVSIFPDSGNFNVDNIRVCKILGSGIYSSSVLHGMVFKKETEGDVTSVKDAKIAVYSCPFDGMITETKGTVLIKTAEELMNFSKGEENLMDAQVKAIAGTGANVIVTGGKVADIALHYANKYNIMLVRLNSKWDLRRLCKTVGATALPKLTPPVQEEMGHCDSVYLSEVGDTQVVVFKHEKEDGAISTIVLRGSTDNLMDDIERAVDDGVNTFKVLTRDKRLVPGGGATEIELAKQITSYGETCPGLEQYAIKKFAEAFEAIPRALAENSGVKANEVISKLYSVHQEGNKNVGLDIEAEVPAVKDMLEASILDTYLGKYWAIKLATNAAVTVLRVDQIIMAKPAGGPKPPSGKKDWDDDQND
B7: Aspartate aminotransferase, mitochondrial (mouse) (protein, UniProt P05202 30-430)
chain: SSWWTHVEMGPPDPILGVTEAFKRDTNSKKMNLGVGAYRDDNGKPYVLPSVRKAEAQIAAKNLDKEYLPIGGLAEFCKASAELALGENNEVLKSGRFVTVQTISGTGALRVGASFLQRFFKFSRDVFLPKPSWGNHTPIFRDAGMQLQGYRYYDPKTCGFDFSGALEDISKIPEQSVLLLHACAHNPTGVDPRPEQWKEIASVVKKKNLFAFFDMAYQGFASGDGDKDAWAVRHFIEQGINVCLCQSYAKNMGLYGERVGAFTVVCKDAEEAKRVESQLKILIRPLYSNPPLNGARIAATILTSPDLRKQWLQEVKGMADRIISMRTQLVSNLKKEGSSHNWQHITDQIGMFCFTGLKPEQVERLTKEFSVYMTKDGRISVAGVTSGNVGYLAHAIHQVTK
B8: T-Complex protein 1 subunit beta (mouse) (protein, UniProt P80314 1-535)
chain: MASLSLAPVNIFKAGADEERAETARLSSFIGAIAIGDLVKSTLGPKGMDKILLSSGRDAALMVTNDGATILKNIGVDNPAAKVLVDMSRVQDDEVGDGTTSVTVLAAELLREAESLIAKKIHPQTIISGWREATKAAREALLSSAVDHGSDEARFWQDLMNIAGTTLSSKLLTHHKDHFTKLAVEAVLRLKGSGNLEAIHVIKKLGGSLADSYLDEGFLLDKKIGVNQPKRIENAKILIANTGMDTDKIKIFGSRVRVDSTAKVAEIEHAEKEKMKEKVERILKHGINCFINRQLIYNYPEQLFGAAGVMAIEHADFAGVERLALVTGGEIASTFDHPELVKLGSCKLIEEVMIGEDKLIHFSGVALGEACTIVLRGATQQILDEAERSLHDALCVLAQTVKDPRTVYGGGCSEMLMAHAVTQLANRTPGKEAVAMESFAKALRMLPTIIADNAGYDSADLVAQLRAAHSEGHITAGLDMKEGTIGDMAVLGITESFQVKRQVLLSAAEAAEVILRVDNIIKAAPRKRVPDHHPC

Results are given in words; binding and its absence hold for the method and conditions named. In cells and extracts the contact can be indirect. A yes stands for co-enrichment or nearness to the bait. Other partners may have been found.

In the first experiment the target is T1, mouse Nucleoredoxin Cys208Ser (mouse). Nature of the experiment: affinity purification with mass spectrometry; intermediate trapping: mNrx Cys208Ser coupled to CNBr-activated sepharose and reduced with 10 mM DTT; clarified SH-SY5Y lysate (NP40 lysis buffer) 2 h at 4°C; washed with 100 mM Tris, 300 mM NaCl, pH 8 and TE buffer; trapped proteins (mixed disulfide) eluted with 10 mM DTT and 10 mM TCEP; only the target purified.
For B1, the binding result is reported as “binds”.

For B2, the binding result is recorded as “binds”.

The next experiment shares this target. Nature of the experiment: affinity purification with mass spectrometry; intermediate trapping: mNrx Cys208Ser coupled to CNBr-activated sepharose and reduced with 10 mM DTT; mouse brain extract (Black 6 C57J mice, NP40 lysis buffer) 2 h at 4°C; washed with 100 mM Tris, 300 mM NaCl, pH 8 and TE buffer; trapped proteins (mixed disulfide) eluted with 10 mM DTT and 10 mM TCEP; only the target purified.
Regarding “Pyruvate kinase (mouse) (from UniProt P52480 1-531)”, the binding entry is recorded as “binds”.

Regarding “Ubiquitin carboxyl-terminal hydrolase 5 (mouse) (from UniProt P56399 1-858)”, the binding entry was “binds”.

Turning to “14-3-3 protein zeta/delta (protein kinase C inhibitor protein 1) (mouse) (from UniProt P63101 1-245)”, the binding result is “binds”.

Regarding “N(G),N(G)-Dimethylarginine dimethylaminohydrolase 1 (mouse) (from UniProt Q9CWS0 1-285)”, the binding entry is recorded as “binds”.

As for “Gamma-enolase (mouse) (from UniProt P17183 1-434)”, the binding result is reported as “binds”.

For “Guanine nucleotide-binding protein (mouse) (from UniProt P62874 1-340)”, the binding entry is recorded as “binds”.

Regarding “Alanine-tRNA ligase, cytoplasmic (mouse) (from UniProt Q8BGQ7 1-968)”, the binding entry was “binds”.

As to “Aspartate aminotransferase, cytoplasmic (mouse) (from UniProt P05201 1-413)”, the binding result is given as “binds”.

Turning to “Cofilin-1 (mouse) (from UniProt P18760 1-166)”, the binding result is “binds”.

As to “Adenosylhomocysteinase (mouse) (from UniProt P50247 1-432)”, the binding entry is reported as “binds”.

As to “Kinesin light chain 1 (mouse) (from UniProt O88447 1-541)”, the binding result is on record as “binds”.

“Histone deacetylase 2 (mouse) (from UniProt P70288 1-488)”: the binding entry is “binds”.

With “Inosine-5′-monophosphate dehydrogenase 2 (mouse) (from UniProt P24547 1-514)”, the binding result is “binds”.

In the case of B3, the binding entry is listed as “binds”.

With B4, the binding entry is “binds”.

B5: the binding entry is listed as “binds”.

As to B6, the binding entry is “binds”.

B7: the binding result is reported as “binds”.

As for B8, the binding result was “binds”.
